Results are given in words; binding and its absence hold for the method and conditions named. Some binding calls cover weakened binding; strength is not graded here.

The chains behind the UniProt entries cited, without tags or fusion partners. Where a name states a change or a piece, a line headed by the entry shows the natural chain unless it says otherwise.
UniProt P11166: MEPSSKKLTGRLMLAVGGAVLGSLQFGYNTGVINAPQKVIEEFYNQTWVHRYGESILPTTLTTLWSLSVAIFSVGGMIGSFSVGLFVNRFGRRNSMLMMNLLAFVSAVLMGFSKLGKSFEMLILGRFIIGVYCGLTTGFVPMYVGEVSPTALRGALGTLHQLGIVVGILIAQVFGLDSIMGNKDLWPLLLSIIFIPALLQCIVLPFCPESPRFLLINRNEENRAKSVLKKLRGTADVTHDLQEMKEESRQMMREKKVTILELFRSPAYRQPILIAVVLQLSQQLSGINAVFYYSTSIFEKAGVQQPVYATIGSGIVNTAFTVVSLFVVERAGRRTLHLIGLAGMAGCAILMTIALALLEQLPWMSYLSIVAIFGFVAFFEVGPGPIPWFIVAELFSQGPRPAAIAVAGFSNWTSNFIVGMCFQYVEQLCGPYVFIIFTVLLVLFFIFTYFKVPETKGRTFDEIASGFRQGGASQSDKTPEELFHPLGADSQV
UniProt P03383: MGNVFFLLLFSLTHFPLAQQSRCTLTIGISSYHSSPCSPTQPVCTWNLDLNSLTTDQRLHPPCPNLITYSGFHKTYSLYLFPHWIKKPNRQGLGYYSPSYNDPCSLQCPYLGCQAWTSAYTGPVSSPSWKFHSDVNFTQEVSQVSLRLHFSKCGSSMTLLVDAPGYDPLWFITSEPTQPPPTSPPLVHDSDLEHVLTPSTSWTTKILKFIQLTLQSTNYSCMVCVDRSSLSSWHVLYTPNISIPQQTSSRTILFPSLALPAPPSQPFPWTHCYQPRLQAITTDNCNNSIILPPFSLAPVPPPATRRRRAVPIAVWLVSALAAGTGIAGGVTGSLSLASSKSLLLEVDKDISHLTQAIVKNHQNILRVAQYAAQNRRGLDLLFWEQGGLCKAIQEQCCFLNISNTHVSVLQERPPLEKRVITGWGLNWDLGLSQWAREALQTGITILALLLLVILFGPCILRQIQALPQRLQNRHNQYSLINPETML
UniProt P03381: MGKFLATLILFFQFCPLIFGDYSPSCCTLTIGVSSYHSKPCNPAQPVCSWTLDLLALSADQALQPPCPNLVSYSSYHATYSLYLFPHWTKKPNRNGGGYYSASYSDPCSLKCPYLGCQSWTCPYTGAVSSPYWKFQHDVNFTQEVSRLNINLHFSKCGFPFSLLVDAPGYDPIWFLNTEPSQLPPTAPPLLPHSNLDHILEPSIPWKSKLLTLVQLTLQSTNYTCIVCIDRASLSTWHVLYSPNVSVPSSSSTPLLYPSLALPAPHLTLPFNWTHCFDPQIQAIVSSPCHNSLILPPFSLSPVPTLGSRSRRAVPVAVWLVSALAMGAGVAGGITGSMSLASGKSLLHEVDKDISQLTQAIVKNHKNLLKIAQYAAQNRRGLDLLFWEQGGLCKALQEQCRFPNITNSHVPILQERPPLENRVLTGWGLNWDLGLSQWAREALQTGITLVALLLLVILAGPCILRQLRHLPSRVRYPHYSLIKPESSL

For assay [1], the target named is T1, Glut1 on murine cells (CD4+ T cells; cerebellar cortex sections) (mouse) (UniProt P17809).
T1 sequence: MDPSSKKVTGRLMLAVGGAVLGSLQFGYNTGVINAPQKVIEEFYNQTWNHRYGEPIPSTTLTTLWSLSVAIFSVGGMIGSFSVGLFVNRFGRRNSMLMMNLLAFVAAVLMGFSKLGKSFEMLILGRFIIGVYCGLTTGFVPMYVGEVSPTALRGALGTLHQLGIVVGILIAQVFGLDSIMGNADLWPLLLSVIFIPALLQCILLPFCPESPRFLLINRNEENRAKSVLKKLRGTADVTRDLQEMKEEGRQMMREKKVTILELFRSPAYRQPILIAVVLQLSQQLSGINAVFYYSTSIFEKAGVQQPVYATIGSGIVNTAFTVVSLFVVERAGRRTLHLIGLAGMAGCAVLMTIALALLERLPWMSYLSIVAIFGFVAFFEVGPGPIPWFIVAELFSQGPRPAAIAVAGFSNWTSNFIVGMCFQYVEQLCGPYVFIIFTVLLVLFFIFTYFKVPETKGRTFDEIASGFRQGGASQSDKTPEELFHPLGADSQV
Kind of assay: fluorescence staining of mouse cerebellum cryosections with RBD-rFc, biotinylated anti-rabbit IgG, Streptavidin-Alexa488.

The target in assay [2] is T1, Glut1 on murine cells (CD4+ T cells; cerebellar cortex sections) (mouse). In words: fluorescence staining of cerebellum cryosections of 16-22 day old mice with RBD-rFc.
The target is the same in assay [3]. In words: flow cytometry, RBD on murine CD4+ T cells polarised to Th0, Th1, Th2, Th17 or iTreg, day 4.
The target of assay [4] is glucose transporter Glut1 on human cells (B cells, B-CLL cells, red blood cells, T cells) (human) (UniProt P11166). Kind of assay: flow cytometry, tagged RBD on CD19+ cells of healthy donors and B-CLL patients. On the technique in general: Flow cytometry measures light scatter and fluorescence of single cells or particles in a stream.
The target is the same in assay [5]. Kind of assay: flow cytometry, tagged RBD on human red blood cells.
For assay [6] the target is unchanged. Kind of assay: flow cytometry, tagged RBD on unstimulated and TCR-stimulated human T cells.

As to “HTLV-RBD soluble RBD-rFc fusion protein (from UniProt P03383 19-224)”, the binding result in assay [1] and in assay [2] was “binds” throughout.

Regarding “Human T Leukaemia Virus-1 (HTLV1) Env receptor binding domain, soluble receptor binding ligand (from UniProt P03381 21-228)”, the binding entry in assay [3] was “binds”.

Take “Human T Leukaemia Virus-2 (HTLV2) Env receptor binding domain, tagged soluble receptor binding ligand (from UniProt P03383 19-224)”: the binding result in assay [4], in assay [5] and in assay [6] was “binds” each time.
